Measurements reported in PubChem BioAssay AID1224830 (NIAID, 2016).
In all, the deposit lists about 18,000 reagents; this is a random part of them. About 2,900 of all reagents (16%) count as active. 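Calls are made per well; low scores hint the gene aids the LPS response, high scores that it dampens it.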 A number with no mark means an inactive call. Repeated entries: four replicate wells of each siRNA pool.

Screen: 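Host factors that control LPS-induced TNF expression in human macrophages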 (primary screen)
Cells: human THP-1 monocytic leukaemia cells, TNF dual-luciferase reporter clone, PMA-differentiated to macrophage-like cells
Reagent: siRNA pool against human genes, 50 nM
Time to read-out: LPS for 4 h, given about 3 days after siRNA transfection
Conditions: bacterial LPS (TLR4 ligand), 10 ng/ml
Detection: 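Ratio of firefly to renilla light, scaled to the plate median and expressed as a robust z-score per replicate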
Direction: TNF reporter robust z-score: higher = stronger TNF reporter response to LPS
Call rule: 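a well is active when its z-score exceeds 2.8 or falls below -1.5; control wells carry no call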

| target gene | TNF reporter robust z-score |
| --- | --- |
| HOXD12 (homeobox D12) | 0.11 |
| HOXD12 (homeobox D12) | 0.01 |
| HOXD12 (homeobox D12) | -0.88 |
| HOXD12 (homeobox D12) | -0.79 |
| IFNA16 (interferon alpha 16) | -1.36 |
| IFNA16 (interferon alpha 16) | -0.62 |
| IFNA16 (interferon alpha 16) | -0.36 |
| IFNA16 (interferon alpha 16) | -1.07 |
| RHBDD3 (rhomboid domain containing 3) | 0.28 |
| RHBDD3 (rhomboid domain containing 3) | 0.09 |
| RHBDD3 (rhomboid domain containing 3) | 0.52 |
| RHBDD3 (rhomboid domain containing 3) | -0.2 |
| C9orf50 (chromosome 9 open reading frame 50) | -0.56 |
| C9orf50 (chromosome 9 open reading frame 50) | -0.34 |
| C9orf50 (chromosome 9 open reading frame 50) | -0.7 |
| C9orf50 (chromosome 9 open reading frame 50) | -0.42 |
| MMD (monocyte to macrophage differentiation associated) | -1.58 (active) |
| MMD (monocyte to macrophage differentiation associated) | 1.12 |
| MMD (monocyte to macrophage differentiation associated) | 0.48 |
| MMD (monocyte to macrophage differentiation associated) | 0 |
| RUFY3 (RUN and FYVE domain containing 3) | 0.38 |
| RUFY3 (RUN and FYVE domain containing 3) | -0.68 |
| RUFY3 (RUN and FYVE domain containing 3) | 0.03 |
| RUFY3 (RUN and FYVE domain containing 3) | 0.66 |
| RANBP3L (RAN binding protein 3 like) | 1.88 |
| RANBP3L (RAN binding protein 3 like) | 0.96 |
| RANBP3L (RAN binding protein 3 like) | 2.03 |
| RANBP3L (RAN binding protein 3 like) | 1.79 |
| H3-3A (H3.3 histone A) | 1.21 |
| H3-3A (H3.3 histone A) | 1.25 |
| H3-3A (H3.3 histone A) | -0.11 |
| H3-3A (H3.3 histone A) | 0.27 |
| CDC42SE1 (CDC42 small effector 1) | -0.58 |
| CDC42SE1 (CDC42 small effector 1) | -0.24 |
| CDC42SE1 (CDC42 small effector 1) | -1.32 |
| CDC42SE1 (CDC42 small effector 1) | -0.6 |
| RRP8 (ribosomal RNA processing 8) | -1.04 |
| RRP8 (ribosomal RNA processing 8) | -0.68 |
| RRP8 (ribosomal RNA processing 8) | -0.85 |
| RRP8 (ribosomal RNA processing 8) | -0.45 |
| OR4C16 (olfactory receptor family 4 subfamily C member 16) | -1.21 |
| OR4C16 (olfactory receptor family 4 subfamily C member 16) | -0.63 |
| OR4C16 (olfactory receptor family 4 subfamily C member 16) | 0.24 |
| OR4C16 (olfactory receptor family 4 subfamily C member 16) | 0.43 |
| CHAC2 (ChaC glutathione specific gamma-glutamylcyclotransferase 2) | 0.58 |
| CHAC2 (ChaC glutathione specific gamma-glutamylcyclotransferase 2) | 0.56 |
| CHAC2 (ChaC glutathione specific gamma-glutamylcyclotransferase 2) | -0.41 |
| CHAC2 (ChaC glutathione specific gamma-glutamylcyclotransferase 2) | -0.22 |
| CCDC80 (coiled-coil domain containing 80) | -0.08 |
| CCDC80 (coiled-coil domain containing 80) | -0.46 |
| CCDC80 (coiled-coil domain containing 80) | -1.14 |
| CCDC80 (coiled-coil domain containing 80) | 0.35 |
| PCDHGA3 (protocadherin gamma subfamily A, 3) | 0.15 |
| PCDHGA3 (protocadherin gamma subfamily A, 3) | 1.41 |
| PCDHGA3 (protocadherin gamma subfamily A, 3) | 0.19 |
| PCDHGA3 (protocadherin gamma subfamily A, 3) | 1.82 |
| MRPS33 (mitochondrial ribosomal protein S33) | -0.51 |
| MRPS33 (mitochondrial ribosomal protein S33) | -1.29 |
| MRPS33 (mitochondrial ribosomal protein S33) | -1.09 |
| MRPS33 (mitochondrial ribosomal protein S33) | -1.35 |
| TPRN (taperin) | -1.37 |
| TPRN (taperin) | -0.79 |
| TPRN (taperin) | -1.06 |
| TPRN (taperin) | -0.8 |
| PRDX4 (peroxiredoxin 4) | -1.19 |
| PRDX4 (peroxiredoxin 4) | -0.54 |
| PRDX4 (peroxiredoxin 4) | 0.87 |
| PRDX4 (peroxiredoxin 4) | 0.07 |
| TTC23 (tetratricopeptide repeat domain 23) | -1.15 |
| TTC23 (tetratricopeptide repeat domain 23) | -0.2 |
| TTC23 (tetratricopeptide repeat domain 23) | -0.35 |
| TTC23 (tetratricopeptide repeat domain 23) | -0.59 |
| IFNE (interferon epsilon) | 1.79 |
| IFNE (interferon epsilon) | 1.76 |
| IFNE (interferon epsilon) | 1.73 |
| IFNE (interferon epsilon) | 1.32 |
| PPME1 (protein phosphatase methylesterase 1) | 0.15 |
| PPME1 (protein phosphatase methylesterase 1) | -0.44 |
| PPME1 (protein phosphatase methylesterase 1) | -0.53 |
| PPME1 (protein phosphatase methylesterase 1) | 0.16 |
| SFRP1 (secreted frizzled related protein 1) | -0.38 |
| SFRP1 (secreted frizzled related protein 1) | -0.53 |
| SFRP1 (secreted frizzled related protein 1) | -0.39 |
| SFRP1 (secreted frizzled related protein 1) | -0.22 |
| PRELID2 (PRELI domain containing 2) | -0.18 |
| PRELID2 (PRELI domain containing 2) | 0 |
| PRELID2 (PRELI domain containing 2) | -0.54 |
| PRELID2 (PRELI domain containing 2) | 0.16 |
| CPNE7 (copine 7) | -0.82 |
| CPNE7 (copine 7) | 0.59 |
| CPNE7 (copine 7) | 0.49 |
| CPNE7 (copine 7) | 1.64 |
| CYP2R1 (cytochrome P450 family 2 subfamily R member 1) | -0.74 |
| CYP2R1 (cytochrome P450 family 2 subfamily R member 1) | 0.09 |
| CYP2R1 (cytochrome P450 family 2 subfamily R member 1) | -0.16 |
| CYP2R1 (cytochrome P450 family 2 subfamily R member 1) | -0.19 |
| CES5A (carboxylesterase 5A) | -0.76 |
| CES5A (carboxylesterase 5A) | 0.02 |
| CES5A (carboxylesterase 5A) | 0.21 |
| CES5A (carboxylesterase 5A) | -0.15 |
| HTRA2 (HtrA serine peptidase 2) | 2.71 |
| HTRA2 (HtrA serine peptidase 2) | 6.07 (active) |
| HTRA2 (HtrA serine peptidase 2) | 1.82 |
| HTRA2 (HtrA serine peptidase 2) | 3.58 (active) |
| COPS8 (COP9 signalosome subunit 8) | -0.5 |
| COPS8 (COP9 signalosome subunit 8) | 0.72 |
| COPS8 (COP9 signalosome subunit 8) | 0.41 |
| COPS8 (COP9 signalosome subunit 8) | 0.24 |
| PIKFYVE (phosphoinositide kinase, FYVE-type zinc finger containing) | -0.26 |
| PIKFYVE (phosphoinositide kinase, FYVE-type zinc finger containing) | 0.26 |
| PIKFYVE (phosphoinositide kinase, FYVE-type zinc finger containing) | 0.4 |
| PIKFYVE (phosphoinositide kinase, FYVE-type zinc finger containing) | -0.15 |
| ARHGEF19 (Rho guanine nucleotide exchange factor 19) | -1.28 |
| ARHGEF19 (Rho guanine nucleotide exchange factor 19) | -1.11 |
| ARHGEF19 (Rho guanine nucleotide exchange factor 19) | -1.07 |
| ARHGEF19 (Rho guanine nucleotide exchange factor 19) | -0.63 |
| GATA4 (GATA binding protein 4) | -1.1 |
| GATA4 (GATA binding protein 4) | -0.27 |
| GATA4 (GATA binding protein 4) | -0.08 |
| GATA4 (GATA binding protein 4) | 0.38 |
| OR2A5 (olfactory receptor family 2 subfamily A member 5) | 0.02 |
| OR2A5 (olfactory receptor family 2 subfamily A member 5) | 0.57 |
| OR2A5 (olfactory receptor family 2 subfamily A member 5) | 0.76 |
| OR2A5 (olfactory receptor family 2 subfamily A member 5) | 0.92 |
| REC8 (REC8 meiotic cohesin complex component) | -0.92 |
| REC8 (REC8 meiotic cohesin complex component) | -0.39 |
| REC8 (REC8 meiotic cohesin complex component) | -0.32 |
| REC8 (REC8 meiotic cohesin complex component) | -0.8 |
| KRTAP13-2 (keratin associated protein 13-2) | -0.17 |
| KRTAP13-2 (keratin associated protein 13-2) | 0.46 |
| KRTAP13-2 (keratin associated protein 13-2) | 1.74 |
| KRTAP13-2 (keratin associated protein 13-2) | 1.59 |
| HOXD11 (homeobox D11) | -0.77 |
| HOXD11 (homeobox D11) | -0.37 |
| HOXD11 (homeobox D11) | 0.42 |
| HOXD11 (homeobox D11) | -0.35 |
| FHOD3 (formin homology 2 domain containing 3) | -0.12 |
| FHOD3 (formin homology 2 domain containing 3) | 0.1 |
| FHOD3 (formin homology 2 domain containing 3) | 0.18 |
| FHOD3 (formin homology 2 domain containing 3) | 0.34 |
